For three substances, binding results are on record in patent US20040009147A1.

By UniProt entry, the sequences of proteins in these tests, tags left out. Where a name states a change or a piece, a line headed by the entry shows the natural chain unless it says otherwise. Residues count along the entry.
UniProt P36941: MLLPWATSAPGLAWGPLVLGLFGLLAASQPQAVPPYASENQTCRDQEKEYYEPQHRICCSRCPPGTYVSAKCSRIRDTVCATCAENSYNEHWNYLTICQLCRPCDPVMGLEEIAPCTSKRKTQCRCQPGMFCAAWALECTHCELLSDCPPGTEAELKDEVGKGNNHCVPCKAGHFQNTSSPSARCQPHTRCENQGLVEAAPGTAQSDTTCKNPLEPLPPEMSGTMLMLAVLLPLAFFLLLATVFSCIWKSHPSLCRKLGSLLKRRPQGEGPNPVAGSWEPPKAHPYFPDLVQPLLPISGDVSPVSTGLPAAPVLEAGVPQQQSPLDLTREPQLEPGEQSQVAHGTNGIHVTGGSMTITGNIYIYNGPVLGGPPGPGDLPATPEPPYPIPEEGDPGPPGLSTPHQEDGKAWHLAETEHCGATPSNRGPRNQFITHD
LTβR on the surface of human tumor cells (MDA-MB-231, HT-29): residues 31-435 of P36941
UniProt O43557: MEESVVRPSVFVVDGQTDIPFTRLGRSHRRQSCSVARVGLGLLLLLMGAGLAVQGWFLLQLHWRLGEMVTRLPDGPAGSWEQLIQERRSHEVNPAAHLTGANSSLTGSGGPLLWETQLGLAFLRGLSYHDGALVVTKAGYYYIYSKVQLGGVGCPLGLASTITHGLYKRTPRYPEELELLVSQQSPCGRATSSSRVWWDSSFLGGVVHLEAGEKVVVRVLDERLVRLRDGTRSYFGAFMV

No constants are given. Whether binding was seen depends on the method and setting. Some binding calls cover weakened binding; strength is not graded here.

Assay [1] deals with LTβR-Fc fusion protein (extracellular domain of human lymphotoxin beta receptor fused to IgG1 Fc) (human) (UniProt P36941). As to the kind of experiment: competition in flow cytometry, Fc fusion at 10 µg/ml preincubated with AIM II.
Assay [2] has the same target. As to the kind of experiment: BIAcore, LTβR-Fc on the chip.
For assay [3], the target named is LTβR on the surface of human tumor cells (MDA-MB-231, HT-29) (human) (UniProt P36941). Kind of assay: flow cytometry, Flag-tagged sAIM II (10 µg/ml) on MDA-MB-231 cells, anti-Flag mAb; the cells carry both LTβR and TR2 (FIGS. 8A, 8E), the panel does not separate the two receptors.
In assay [4] the target is LTβR-Fc fusion protein (extracellular domain of human lymphotoxin beta receptor fused to IgG1 Fc) (human) (UniProt P36941). As to the kind of experiment: BIAcore, LTβR-Fc immobilized by amine coupling, dilutions of CHO conditioned medium as analyte.
For assay [5], the target named is LTβR on the surface of human tumor cells (MDA-MB-231, HT-29) (human) (UniProt P36941). Kind of assay: flow cytometry (discussion of Example 5).
Assay [6] has as its target LTβR-Fc fusion protein (extracellular domain of human lymphotoxin beta receptor fused to IgG1 Fc) (human) (UniProt P36941). As to the kind of experiment: LTβR-Fc affinity column, SDS-PAGE with silver stain; eluted fractions retained binding to the LTβR BIAcore chip.
Assay [7] shares this target. Kind of assay: BIAcore, LTβR-Fc on the chip, conditioned medium of CHO clones.
Assay [8] concerns the target Flag-tagged soluble AIM II protein (sAIM II), amino acids 74-240 of AIM II (human) (UniProt O43557). As to the kind of experiment: flow cytometry blocking: LTβR-Fc (10 µg/ml) preincubated 30 min with Flag-tagged sAIM II before addition to MDA-MB-231 cells; blocked: binding of sAIM II to the cells.

“Flag-tagged soluble AIM II protein (sAIM II), amino acids 74-240 of AIM II (from UniProt O43557 74-240) (ligand)”: the binding result in assay [1], in assay [2], in assay [3], in assay [4] and in assay [5] was “binds” throughout.

Turning to “ck-beta 8/AIM II fusion protein from CHO-11 conditioned media (extracellular region of AIM II, amino acids 60-240) (from UniProt O43557 60-240) (ligand)”, the binding entry in assay [6] and in assay [7] was “binds” each time.

In the case of “LTβR-Fc fusion protein (extracellular domain of human lymphotoxin beta receptor fused to IgG1 Fc) (from UniProt P36941 31-227)”, in assay [8], the binding entry is on record as “binds”.
